Values from PubChem BioAssay AID1259424 (University of Nebraska Medical Center, 2018).
Shown is a random part of about 14,000 reagents tested. 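Higher correlation or smaller distance means closer resemblance to KSR1 loss; control wells, including KSR1 knockdowns, recur on many plates.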 Some reagents were tested in more than one well and are listed for each. Further read-outs or replicates are left out here. Not given: the time to read-out.

- Test: 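Seek colon cancer survival genes behaving like KSR1, using a six-gene signature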 (primary screen)
- System: human HCT116 colon cancer cells
- Knock-down reagent: siRNA pool against human genes, 50 nM
- Measured: 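Log2 levels of six mRNAs (branched-DNA multiplex), adjusted by two reference genes and the non-targeting median, then scored against the average KSR1 knockdown pattern as Pearson r and euclidean distance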
- Direction: mean correlation with KSR1 profile: higher = expression change more like KSR1 knockdown

| gene | PubChem SID | mean correlation with KSR1 profile |
| --- | --- | --- |
| PELI2 (pellino E3 ubiquitin protein ligase family member 2) | SID364002131 | 0.566 |
| USP16 (ubiquitin specific peptidase 16) | SID363997257 | -0.475 |
| PEX16 (peroxisomal biogenesis factor 16) | SID363995766 | 0.335 |
| PRPH (peripherin) | SID363997085 | -0.236 |
| FBXO28 (F-box protein 28) | SID363999346 | 0.364 |
| INTS10 (integrator complex subunit 10) | SID364000818 | 0.671 |
| VASP (vasodilator stimulated phosphoprotein) | SID363994482 | 0.351 |
| LEFTY1 (left-right determination factor 1) | SID364001939 | -0.231 |
| COG1 (component of oligomeric golgi complex 1) | SID364001200 | -0.414 |
| COL4A3 (collagen type IV alpha 3 chain) | SID363991428 | 0.0332 |
| PCDHA3 (protocadherin alpha 3) | SID364001233 | 0.832 |
| BID (BH3 interacting domain death agonist) | SID363992484 | -0.383 |
| ABCA9 (ATP binding cassette subfamily A member 9) | SID364004479 | 0.0524 |
| KEL (Kell metallo-endopeptidase (Kell blood group)) | SID363991751 | -0.0738 |
| WASF3 (WASP family member 3) | SID363997434 | 0.227 |
| PXK (PX domain containing serine/threonine kinase like) | SID364000515 | 0.188 |
| PPP1R3A (protein phosphatase 1 regulatory subunit 3A) | SID363993870 | -0.727 |
| PRKACG (protein kinase cAMP-activated catalytic subunit gamma) | SID363993890 | -0.151 |
| GMNN (geminin DNA replication inhibitor) | SID363999699 | 0.0884 |
| MAMDC4 (MAM domain containing 4) | SID364005273 | -0.351 |
| HOXD4 (homeobox D4) | SID363998990 | -0.514 |
| ADRA1B (adrenoceptor alpha 1B) | SID363991978 | 0.363 |
| ADRA1B (adrenoceptor alpha 1B) | SID363991978 | 0.844 |
| MS4A12 (membrane spanning 4-domains A12) | SID364000467 | -0.428 |
| TEFM (transcription elongation factor, mitochondrial) | SID364002974 | 0.582 |
| SLC39A6 | SID363998229 | 0.0982 |
| TMEM260 (transmembrane protein 260) | SID364000536 | -0.406 |
| GJA5 (gap junction protein alpha 5) | SID363996186 | -0.136 |
| FAM167A-AS1 (FAM167A antisense RNA 1) | SID364004442 | 0.761 |
| MRPL43 (mitochondrial ribosomal protein L43) | SID364003771 | 0.528 |
| DIO2 (iodothyronine deiodinase 2) | SID363992083 | -0.572 |
| EIF3B (eukaryotic translation initiation factor 3 subunit B) | SID363994818 | -0.489 |
| PLEKHG2 (pleckstrin homology and RhoGEF domain containing G2) | SID364002578 | -0.426 |
| B3GNT9 | SID364004357 | 0.896 |
| VTN (vitronectin) | SID363991954 | 0.51 |
| DDX54 (DEAD-box helicase 54) | SID364002726 | 0.102 |
| MGMT (O-6-methylguanine-DNA methyltransferase) | SID363993590 | -0.185 |
| TRAPPC14 (trafficking protein particle complex subunit 14) | SID364000935 | -0.0919 |
| DRD4 (dopamine receptor D4) | SID363992087 | 0.773 |
| CA6 (carbonic anhydrase 6) | SID363992500 | -0.536 |
| TMEM160 (transmembrane protein 160) | SID364000585 | 0.233 |
| LIPC (lipase C, hepatic type) | SID363991570 | 0.676 |
| MYRF (myelin regulatory factor) | SID363998402 | -0.749 |
| LITAF (lipopolysaccharide induced TNF factor) | SID363995813 | -0.362 |
| STRIP1 (striatin interacting protein 1) | SID364004316 | 0.265 |
| AP3S2 (adaptor related protein complex 3 subunit sigma 2) | SID363996704 | -0.324 |
| WNT9A (Wnt family member 9A) | SID363994507 | -0.609 |
| PYY2 (peptide YY 2 (pseudogene)) | SID364002003 | 0.25 |
| RASAL1 (RAS protein activator like 1) | SID363995624 | 0.434 |
| TBX5 (T-box transcription factor 5) | SID363991528 | -0.384 |

Records listed so far whose gene name starts with T or t:
| gene | PubChem SID | mean correlation with KSR1 profile |
| --- | --- | --- |
| TEFM (transcription elongation factor, mitochondrial) | SID364002974 | 0.582 |
| TMEM260 (transmembrane protein 260) | SID364000536 | -0.406 |
| TRAPPC14 (trafficking protein particle complex subunit 14) | SID364000935 | -0.0919 |
| TMEM160 (transmembrane protein 160) | SID364000585 | 0.233 |
| TBX5 (T-box transcription factor 5) | SID363991528 | -0.384 |
